Reference: the supplement of paper PMC10849652
The other results are listed elsewhere or left out.

Chains of the proteins cited; added tags and fusions are not shown. Lines headed by an entry give the natural chain unless they say otherwise; changes in a name come on top.
UniProt Q7Z4S6: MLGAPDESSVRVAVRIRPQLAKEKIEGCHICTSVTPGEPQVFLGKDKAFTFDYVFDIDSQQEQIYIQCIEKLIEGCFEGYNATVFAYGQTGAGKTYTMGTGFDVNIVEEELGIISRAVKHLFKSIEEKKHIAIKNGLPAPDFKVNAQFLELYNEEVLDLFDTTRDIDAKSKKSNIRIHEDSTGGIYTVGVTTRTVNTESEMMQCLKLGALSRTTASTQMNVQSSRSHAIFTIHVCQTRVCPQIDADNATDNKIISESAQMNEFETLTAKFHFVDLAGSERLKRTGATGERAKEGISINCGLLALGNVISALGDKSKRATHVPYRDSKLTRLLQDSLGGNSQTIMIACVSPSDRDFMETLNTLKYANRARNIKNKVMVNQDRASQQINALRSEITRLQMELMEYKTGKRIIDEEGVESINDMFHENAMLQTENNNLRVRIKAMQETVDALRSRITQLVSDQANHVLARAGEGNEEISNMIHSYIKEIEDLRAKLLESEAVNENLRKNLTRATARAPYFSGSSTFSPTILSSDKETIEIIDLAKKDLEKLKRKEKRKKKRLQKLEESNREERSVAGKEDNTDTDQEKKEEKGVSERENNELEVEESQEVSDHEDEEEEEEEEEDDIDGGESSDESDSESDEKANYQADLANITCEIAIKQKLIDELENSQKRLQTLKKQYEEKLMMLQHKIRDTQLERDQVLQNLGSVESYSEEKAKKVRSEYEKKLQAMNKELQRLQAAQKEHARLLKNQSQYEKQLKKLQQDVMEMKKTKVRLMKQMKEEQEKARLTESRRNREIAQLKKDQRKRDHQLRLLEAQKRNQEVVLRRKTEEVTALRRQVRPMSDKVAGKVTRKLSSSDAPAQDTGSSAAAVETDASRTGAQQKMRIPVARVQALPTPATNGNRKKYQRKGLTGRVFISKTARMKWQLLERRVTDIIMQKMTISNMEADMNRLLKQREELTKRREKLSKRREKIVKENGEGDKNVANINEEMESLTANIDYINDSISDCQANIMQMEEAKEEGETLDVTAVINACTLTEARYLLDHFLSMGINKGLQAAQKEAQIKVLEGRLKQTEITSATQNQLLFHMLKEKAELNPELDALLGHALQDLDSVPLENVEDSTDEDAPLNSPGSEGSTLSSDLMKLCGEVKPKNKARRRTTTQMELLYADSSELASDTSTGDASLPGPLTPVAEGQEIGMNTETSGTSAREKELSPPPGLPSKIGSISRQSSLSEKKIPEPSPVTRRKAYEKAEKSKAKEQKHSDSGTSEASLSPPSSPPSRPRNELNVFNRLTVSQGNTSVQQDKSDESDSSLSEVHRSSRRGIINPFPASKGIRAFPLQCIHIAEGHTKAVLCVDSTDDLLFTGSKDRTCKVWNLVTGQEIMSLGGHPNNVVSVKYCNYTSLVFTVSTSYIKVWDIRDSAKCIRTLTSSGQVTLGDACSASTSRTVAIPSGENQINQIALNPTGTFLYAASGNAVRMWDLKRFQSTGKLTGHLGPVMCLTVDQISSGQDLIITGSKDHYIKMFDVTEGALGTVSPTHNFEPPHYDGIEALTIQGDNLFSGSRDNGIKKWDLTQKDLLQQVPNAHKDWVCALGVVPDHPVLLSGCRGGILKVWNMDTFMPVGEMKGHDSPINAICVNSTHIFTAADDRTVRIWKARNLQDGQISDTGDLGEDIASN
UniProt Q12840: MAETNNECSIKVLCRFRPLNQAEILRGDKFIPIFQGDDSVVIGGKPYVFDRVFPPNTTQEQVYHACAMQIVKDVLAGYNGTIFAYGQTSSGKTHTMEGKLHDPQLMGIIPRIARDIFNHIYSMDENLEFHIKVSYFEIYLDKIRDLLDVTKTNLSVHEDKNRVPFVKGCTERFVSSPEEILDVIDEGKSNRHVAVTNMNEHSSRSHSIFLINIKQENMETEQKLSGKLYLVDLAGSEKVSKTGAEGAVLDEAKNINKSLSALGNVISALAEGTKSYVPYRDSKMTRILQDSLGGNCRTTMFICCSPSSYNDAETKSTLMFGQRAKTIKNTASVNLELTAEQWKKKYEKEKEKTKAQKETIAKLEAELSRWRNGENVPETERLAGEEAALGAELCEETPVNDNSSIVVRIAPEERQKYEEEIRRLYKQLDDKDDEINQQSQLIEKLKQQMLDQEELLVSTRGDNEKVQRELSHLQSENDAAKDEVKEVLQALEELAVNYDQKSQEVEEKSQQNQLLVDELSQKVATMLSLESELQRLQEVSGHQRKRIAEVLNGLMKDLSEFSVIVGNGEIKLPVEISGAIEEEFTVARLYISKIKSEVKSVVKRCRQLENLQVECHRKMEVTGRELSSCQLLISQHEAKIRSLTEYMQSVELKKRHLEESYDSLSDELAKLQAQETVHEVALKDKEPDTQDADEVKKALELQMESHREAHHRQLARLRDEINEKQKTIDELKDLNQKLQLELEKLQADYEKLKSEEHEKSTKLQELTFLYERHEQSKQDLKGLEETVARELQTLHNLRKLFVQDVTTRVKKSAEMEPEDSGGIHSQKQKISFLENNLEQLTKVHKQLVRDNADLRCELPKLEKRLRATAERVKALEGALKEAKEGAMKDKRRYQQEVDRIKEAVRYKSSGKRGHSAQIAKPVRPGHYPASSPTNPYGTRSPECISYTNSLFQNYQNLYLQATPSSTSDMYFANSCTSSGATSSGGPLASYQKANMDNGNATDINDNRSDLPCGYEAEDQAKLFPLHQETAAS
UniProt O60662: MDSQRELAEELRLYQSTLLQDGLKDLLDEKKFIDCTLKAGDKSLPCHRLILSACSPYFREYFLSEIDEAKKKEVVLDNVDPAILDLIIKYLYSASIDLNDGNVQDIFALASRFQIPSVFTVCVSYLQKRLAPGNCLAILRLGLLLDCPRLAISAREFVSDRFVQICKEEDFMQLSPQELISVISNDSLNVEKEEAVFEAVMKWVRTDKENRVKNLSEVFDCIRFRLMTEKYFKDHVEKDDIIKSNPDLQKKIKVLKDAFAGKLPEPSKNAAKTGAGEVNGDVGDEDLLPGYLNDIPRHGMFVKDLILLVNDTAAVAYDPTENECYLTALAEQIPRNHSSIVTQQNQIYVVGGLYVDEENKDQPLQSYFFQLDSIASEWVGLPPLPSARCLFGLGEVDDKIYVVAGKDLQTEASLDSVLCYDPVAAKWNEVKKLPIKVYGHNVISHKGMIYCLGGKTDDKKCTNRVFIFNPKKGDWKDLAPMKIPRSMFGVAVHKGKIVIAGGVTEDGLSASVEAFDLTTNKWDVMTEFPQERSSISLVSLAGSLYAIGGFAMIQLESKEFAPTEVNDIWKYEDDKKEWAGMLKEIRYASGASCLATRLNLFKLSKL
UniProt Q9UN81: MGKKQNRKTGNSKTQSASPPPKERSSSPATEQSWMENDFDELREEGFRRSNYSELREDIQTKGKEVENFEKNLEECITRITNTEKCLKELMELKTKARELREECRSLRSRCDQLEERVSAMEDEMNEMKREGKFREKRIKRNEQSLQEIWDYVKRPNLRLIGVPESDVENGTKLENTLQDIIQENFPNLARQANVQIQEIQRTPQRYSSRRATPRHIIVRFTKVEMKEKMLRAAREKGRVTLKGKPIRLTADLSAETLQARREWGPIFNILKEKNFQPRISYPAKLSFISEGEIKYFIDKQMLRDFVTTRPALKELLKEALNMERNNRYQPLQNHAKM
UniProt Q9BXK1: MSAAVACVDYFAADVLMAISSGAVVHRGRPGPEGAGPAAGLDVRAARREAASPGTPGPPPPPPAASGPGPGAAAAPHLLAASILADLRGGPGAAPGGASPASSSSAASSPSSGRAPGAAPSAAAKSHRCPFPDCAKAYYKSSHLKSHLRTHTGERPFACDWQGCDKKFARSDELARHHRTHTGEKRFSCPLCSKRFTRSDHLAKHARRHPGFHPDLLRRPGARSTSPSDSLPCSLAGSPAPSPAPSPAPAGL
UniProt P52294, whole entry, looked up: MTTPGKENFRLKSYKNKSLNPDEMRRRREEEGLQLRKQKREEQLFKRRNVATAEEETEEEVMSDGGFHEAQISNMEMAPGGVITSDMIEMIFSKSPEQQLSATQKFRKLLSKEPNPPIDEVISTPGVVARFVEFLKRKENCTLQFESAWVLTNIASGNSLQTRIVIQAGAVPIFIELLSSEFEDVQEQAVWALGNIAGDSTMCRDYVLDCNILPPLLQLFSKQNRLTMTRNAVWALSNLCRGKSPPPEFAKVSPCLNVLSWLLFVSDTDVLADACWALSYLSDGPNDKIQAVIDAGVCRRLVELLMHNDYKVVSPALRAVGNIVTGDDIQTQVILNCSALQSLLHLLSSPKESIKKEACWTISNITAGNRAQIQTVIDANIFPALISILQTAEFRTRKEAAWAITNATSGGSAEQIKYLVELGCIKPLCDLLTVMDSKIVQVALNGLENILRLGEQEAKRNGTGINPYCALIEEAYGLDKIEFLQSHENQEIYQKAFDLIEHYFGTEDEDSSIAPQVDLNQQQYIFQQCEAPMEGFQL
UniProt P41229: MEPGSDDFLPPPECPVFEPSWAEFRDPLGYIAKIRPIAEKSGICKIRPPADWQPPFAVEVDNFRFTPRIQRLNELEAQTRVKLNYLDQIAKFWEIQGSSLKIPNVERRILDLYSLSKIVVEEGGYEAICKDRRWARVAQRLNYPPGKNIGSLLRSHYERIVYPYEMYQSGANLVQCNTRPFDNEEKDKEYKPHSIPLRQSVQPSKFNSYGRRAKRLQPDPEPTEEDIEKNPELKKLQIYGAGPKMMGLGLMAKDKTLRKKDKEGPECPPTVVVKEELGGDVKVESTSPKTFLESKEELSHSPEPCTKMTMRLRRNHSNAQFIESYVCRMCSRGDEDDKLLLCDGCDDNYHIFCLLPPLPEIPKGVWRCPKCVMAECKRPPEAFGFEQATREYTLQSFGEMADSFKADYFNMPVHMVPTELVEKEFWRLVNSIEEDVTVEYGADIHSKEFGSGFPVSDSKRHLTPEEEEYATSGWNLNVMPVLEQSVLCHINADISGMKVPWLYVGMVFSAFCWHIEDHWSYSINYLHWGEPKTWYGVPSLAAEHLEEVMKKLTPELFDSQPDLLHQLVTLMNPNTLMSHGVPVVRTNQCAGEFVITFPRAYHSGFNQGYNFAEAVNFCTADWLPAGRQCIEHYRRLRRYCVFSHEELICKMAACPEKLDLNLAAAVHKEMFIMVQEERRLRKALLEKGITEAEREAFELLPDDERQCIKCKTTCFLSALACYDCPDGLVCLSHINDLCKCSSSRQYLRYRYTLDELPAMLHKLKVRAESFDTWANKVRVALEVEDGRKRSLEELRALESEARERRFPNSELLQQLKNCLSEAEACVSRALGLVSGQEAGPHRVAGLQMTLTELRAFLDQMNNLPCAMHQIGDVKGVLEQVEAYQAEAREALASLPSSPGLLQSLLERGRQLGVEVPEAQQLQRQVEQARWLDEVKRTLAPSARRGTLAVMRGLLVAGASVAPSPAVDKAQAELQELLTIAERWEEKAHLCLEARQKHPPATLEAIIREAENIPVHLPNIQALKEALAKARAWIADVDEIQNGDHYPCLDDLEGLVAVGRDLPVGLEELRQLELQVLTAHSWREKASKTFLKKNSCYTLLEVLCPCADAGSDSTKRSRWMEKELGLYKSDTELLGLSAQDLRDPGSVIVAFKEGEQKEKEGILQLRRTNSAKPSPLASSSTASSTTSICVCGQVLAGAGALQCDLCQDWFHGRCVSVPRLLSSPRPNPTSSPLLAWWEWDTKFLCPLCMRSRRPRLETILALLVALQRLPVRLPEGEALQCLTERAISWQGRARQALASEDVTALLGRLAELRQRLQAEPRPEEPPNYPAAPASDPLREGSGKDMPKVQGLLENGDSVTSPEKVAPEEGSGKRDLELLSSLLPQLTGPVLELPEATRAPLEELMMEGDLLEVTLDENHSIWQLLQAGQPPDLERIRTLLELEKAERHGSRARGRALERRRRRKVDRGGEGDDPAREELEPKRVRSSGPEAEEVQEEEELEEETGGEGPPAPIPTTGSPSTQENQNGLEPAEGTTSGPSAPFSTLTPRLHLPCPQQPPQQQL
UniProt Q4G0J3: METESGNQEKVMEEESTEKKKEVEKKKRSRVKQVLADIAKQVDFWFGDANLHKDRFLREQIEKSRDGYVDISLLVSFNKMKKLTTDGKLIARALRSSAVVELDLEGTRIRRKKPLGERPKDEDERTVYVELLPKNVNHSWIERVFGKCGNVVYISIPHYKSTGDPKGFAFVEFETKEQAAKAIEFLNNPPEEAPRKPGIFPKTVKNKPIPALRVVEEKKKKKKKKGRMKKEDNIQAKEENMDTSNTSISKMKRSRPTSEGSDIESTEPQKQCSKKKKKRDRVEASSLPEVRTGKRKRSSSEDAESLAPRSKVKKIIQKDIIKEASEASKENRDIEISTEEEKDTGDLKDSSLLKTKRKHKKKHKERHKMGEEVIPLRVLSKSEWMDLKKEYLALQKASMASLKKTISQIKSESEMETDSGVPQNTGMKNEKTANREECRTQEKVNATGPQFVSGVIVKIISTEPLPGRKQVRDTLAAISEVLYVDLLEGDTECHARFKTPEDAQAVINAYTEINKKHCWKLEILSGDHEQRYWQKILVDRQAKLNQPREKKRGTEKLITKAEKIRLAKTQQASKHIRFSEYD

Assays:
Assay in all cases: log2 fold change, soluble protein after heating vs DMSO (PISA); higher = thermal stabilisation; K562 lysate, 10 uM; active = over 0.2 and 3.5 SD of the protein, either way, in both replicates (recomputed)
alvocidib = compound: CN1CC[C@H](c2c(O)cc(O)c3c(=O)cc(-c4ccccc4Cl)oc23)[C@H](O)C1 [alvocidib]
Summary of the method: (§1)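 Thermal stability, expressed as log-two fold change relative to solvent controls, is given from duplicates. Crude K562 extract in PBS pH 7.4 with 1 mM MgCl2, at 1 mg/mL protein, was treated with 10 μM compound for 30 min and heated in aliquots for 3 min across 48°C-58°C. After pooling, adjustment to 0.5% NP-40 at 4°C and centrifugation at 21,000xg for 90 min, supernatant protein was measured by TMTpro 16plex LC-MS/MS with channel sums equalised.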

Tubastatin A = compound: CN1CCc2c(c3ccccc3n2Cc2ccc(C(=O)NO)cc2)C1 [Tubastatin A]
Summary of the method: as §1

[1] = compound: CNC(=O)C1=CC=CC=C1NC2=NC(=NC=C2Cl)NC3=C(C=C(C=C3)N4CCOCC4)OC
Summary of the method: as §1

defactinib = compound: CNC(=O)c1ccc(Nc2ncc(C(F)(F)F)c(NCc3nccnc3N(C)S(C)(=O)=O)n2)cc1 [defactinib]
Summary of the method: as §1

[2] = compound: CNc1nc(-c2ccc3c(N)n[nH]c3c2)cc(N2C[C@@H](C(=O)NC3CCCCC3)CC[C@H]2C)n1
Summary of the method: as §1

encorafenib = compound: COC(=O)N[C@@H](C)CNc1nccc(-c2cn(C(C)C)nc2-c2cc(Cl)cc(NS(C)(=O)=O)c2F)n1 [encorafenib]
Summary of the method: as §1

[3] = compound: COC(=O)[C@H](CCSC)NC(=O)C1=C(C=C(C=C1)NC[C@H](CS)N)C2=CC=CC=C2
Summary of the method: as §1

alisertib = compound: COc1cc(Nc2ncc3c(n2)-c2ccc(Cl)cc2C(c2c(F)cccc2OC)=NC3)ccc1C(=O)O [alisertib]
Summary of the method: as §1

[4] = compound: COc1cc2nc(-c3cc(F)ccc3O)nc(N[C@@H]3CNC[C@H]3C(C)(C)O)c2cc1OC
Summary of the method: as §1

gefitinib = compound: COc1cc2ncnc(Nc3ccc(F)c(Cl)c3)c2cc1OCCCN1CCOCC1 [gefitinib]
Summary of the method: as §1

lapatinib = compound: CS(=O)(=O)CCNCc1ccc(-c2ccc3ncnc(Nc4ccc(OCc5cccc(F)c5)c(Cl)c4)c3c2)o1 [lapatinib]
Summary of the method: as §1

pictilisib = compound: CS(=O)(=O)N1CCN(Cc2cc3nc(-c4cccc5[nH]ncc45)nc(N4CCOCC4)c3s2)CC1 [pictilisib]
Summary of the method: as §1

crizotinib = compound: C[C@@H](Oc1cc(-c2cnn(C3CCNCC3)c2)cnc1N)c1c(Cl)ccc(F)c1Cl [crizotinib]
Summary of the method: as §1

[5] = compound: C[C@H](C1=CC=C(C=C1)C(=O)NC2=C3C=CNC3=NC=C2)N
Summary of the method: as §1

duvelisib = compound: C[C@H](Nc1ncnc2nc[nH]c12)c1cc2cccc(Cl)c2c(=O)n1-c1ccccc1 [duvelisib]
Summary of the method: as §1

gandotinib = compound: Cc1cc(Nc2cc(CN3CCOCC3)c3nc(C)c(Cc4ccc(Cl)cc4F)n3n2)n[nH]1 [gandotinib]
Summary of the method: as §1

tozasertib = compound: Cc1cc(Nc2cc(N3CCN(C)CC3)nc(Sc3ccc(NC(=O)C4CC4)cc3)n2)n[nH]1 [tozasertib]
Summary of the method: as §1

doramapimod = compound: Cc1ccc(-n2nc(C(C)(C)C)cc2NC(=O)Nc2ccc(OCCN3CCOCC3)c3ccccc23)cc1 [doramapimod]
Summary of the method: as §1

bafetinib = compound: Cc1ccc(NC(=O)c2ccc(CN3CC[C@H](N(C)C)C3)c(C(F)(F)F)c2)cc1Nc1nccc(-c2cncnc2)n1 [bafetinib]
Summary of the method: as §1

[6] = compound: Cc1cccc(CC(=O)N2CCc3c2ccc(-c2cn(C)c4ncnc(N)c24)c3F)n1
Summary of the method: as §1

Measured: log2 fold change

KIFC1 (UniProt Q9BW19)
inactive: alvocidib -0.022 | Tubastatin A -0.15 | [1] -0.013 | defactinib -0.003 | [2] 0.024 | encorafenib -0.03 | [3] 0.14 | alisertib 0.011 | [4] 0.008 | gefitinib -0.01 | lapatinib -0.021 | pictilisib -0.013 | crizotinib -0.019 | [5] -0.016 | duvelisib -0.003 | gandotinib -0.05 | tozasertib 0.047 | doramapimod 0.021 | bafetinib -0.027 | [6] 0.031

LAMTOR5 (UniProt O43504)
inactive: alvocidib 0.007 | Tubastatin A 0.099 | [1] 0.066 | defactinib 0.088 | [2] 0.096 | encorafenib 0.053 | [3] -0.079 | alisertib 0.045 | [4] -0.008 | gefitinib -0.195 | lapatinib 0.042 | pictilisib -0.089 | crizotinib 0.019 | [5] 0.008 | duvelisib -0.048 | gandotinib -0.071 | tozasertib 0.028 | doramapimod 0.002 | bafetinib 0.029 | [6] -0.111

KIF21A isoform 5 (UniProt Q7Z4S6)
inactive: alvocidib 0.106 | Tubastatin A -0.066 | [1] 0.022 | defactinib 0.007 | [2] 0.008 | encorafenib -0.016 | [3] 0.09 | alisertib -0.033 | [4] -0.002 | gefitinib -0.012 | lapatinib -0.014 | pictilisib -0.018 | crizotinib -0.021 | [5] 0.157 | duvelisib -0.032 | gandotinib -0.077 | tozasertib 0.005 | doramapimod 0.019 | bafetinib -0.019 | [6] -0.062

L2HGDH (UniProt Q9H9P8)
inactive: alvocidib -0.015 | Tubastatin A 0.073 | [1] 0.049 | defactinib -0.005 | [2] -0.02 | encorafenib 0.016 | [3] 0.076 | alisertib -0.005 | [4] -0.028 | gefitinib -0.023 | lapatinib -0.023 | pictilisib -0.018 | crizotinib -0.015 | [5] -0.028 | duvelisib -0.024 | gandotinib 0.047 | tozasertib 0.011 | doramapimod -0.034 | bafetinib -0.06 | [6] 0.049

LARP1B, A0A3B3ISF0
inactive: alvocidib 0.007 | Tubastatin A -0.04 | [1] -0.048 | defactinib -0.041 | [2] 0.021 | encorafenib 0.036 | [3] 0.136 | alisertib 0.045 | [4] 0.029 | gefitinib 0.052 | lapatinib 0.04 | pictilisib 0.098 | crizotinib -0.082 | [5] 0.03 | duvelisib -0.017 | gandotinib 0 | tozasertib -0.023 | doramapimod 0.084 | bafetinib 0.019 | [6] -0.008

KIF2A isoform 4 (UniProt O00139)
inactive: alvocidib 0 | Tubastatin A -0.148 | [1] 0.005 | defactinib 0.01 | [2] -0.024 | encorafenib 0.012 | [3] 0.093 | alisertib 0.004 | [4] -0.014 | gefitinib 0.011 | lapatinib -0.004 | pictilisib -0.006 | crizotinib -0.004 | [5] 0.026 | duvelisib 0.022 | gandotinib -0.066 | tozasertib 0.01 | doramapimod 0.055 | bafetinib -0.006 | [6] 0.037

KIF5A (UniProt Q12840)
inactive: alvocidib 0.012 | Tubastatin A -0.041 | [1] -0.011 | defactinib 0.001 | [2] -0.013 | encorafenib -0.002 | [3] 0.053 | alisertib 0.001 | [4] -0.001 | gefitinib 0.013 | lapatinib -0.022 | pictilisib -0.019 | crizotinib 0.014 | [5] 0.01 | duvelisib 0.021 | gandotinib -0.043 | tozasertib 0.017 | doramapimod -0.001 | bafetinib -0.007 | [6] -0.025

KLHL41 (UniProt O60662)
inactive: alvocidib -0.221 | Tubastatin A 0.044 | [1] 0.058 | defactinib 0.15 | [2] 0.295 | encorafenib -0.05 | [3] -0.041 | alisertib 0.193 | [4] -0.082 | gefitinib 0.163 | lapatinib -0.039 | pictilisib 0.014 | crizotinib -0.306 | [5] -0.355 | duvelisib -0.015 | gandotinib 0.449 | tozasertib 0.096 | doramapimod 0.053 | bafetinib -0.223 | [6] 0.375

KPNB1 (UniProt Q14974)
inactive: alvocidib 0.019 | Tubastatin A -0.005 | [1] 0.003 | defactinib -0.021 | [2] -0.012 | encorafenib -0.006 | [3] 0.006 | alisertib -0.002 | [4] 0.014 | gefitinib 0.005 | lapatinib -0.028 | pictilisib -0.012 | crizotinib -0.021 | [5] 0.009 | duvelisib 0.04 | gandotinib -0.042 | tozasertib -0.021 | doramapimod -0.005 | bafetinib -0.014 | [6] -0.005

LAMB1 (UniProt P07942)
inactive: alvocidib -0.034 | Tubastatin A -0.002 | [1] -0.013 | defactinib 0.016 | [2] -0.021 | encorafenib -0.013 | [3] 0.001 | alisertib 0.079 | [4] -0.016 | gefitinib -0.084 | lapatinib -0.016 | pictilisib -0.029 | crizotinib 0 | [5] 0.024 | duvelisib -0.02 | gandotinib 0.013 | tozasertib 0.025 | doramapimod 0.04 | bafetinib -0.016 | [6] 0.011

L1RE1 (UniProt Q9UN81)
inactive: alvocidib -0.028 | Tubastatin A 0.053 | [1] -0.015 | defactinib 0.043 | [2] 0.007 | encorafenib 0.02 | [3] -0.03 | alisertib 0.021 | [4] 0.007 | gefitinib 0.011 | lapatinib 0.065 | pictilisib -0.002 | crizotinib 0.007 | [5] -0.041 | duvelisib -0.005 | gandotinib 0.041 | tozasertib -0.077 | doramapimod -0.007 | bafetinib 0.021 | [6] 0.058

KLF16 (UniProt Q9BXK1)
inactive: alvocidib -0.137 | Tubastatin A -0.049 | [1] 0.033 | defactinib -0.026 | [2] -0.041 | encorafenib -0.182 | [3] 0.061 | alisertib 0.042 | [4] -0.01 | gefitinib -0.008 | lapatinib 0.003 | pictilisib -0.03 | crizotinib -0.006 | [5] 0 | duvelisib -0.029 | gandotinib 0.101 | tozasertib -0.244 | doramapimod 0.196 | bafetinib -0.23 | [6] 0.207

Copied from the entries so far (2 entries):
KPNB1 (UniProt Q14974)
inactive: alvocidib 0.019 | Tubastatin A -0.005 | [1] 0.003 | defactinib -0.021 | [2] -0.012 | encorafenib -0.006 | [3] 0.006 | alisertib -0.002 | [4] 0.014 | gefitinib 0.005 | lapatinib -0.028 | pictilisib -0.012 | crizotinib -0.021 | [5] 0.009 | duvelisib 0.04 | gandotinib -0.042 | tozasertib -0.021 | doramapimod -0.005 | bafetinib -0.014 | [6] -0.005

LAMB1 (UniProt P07942)
inactive: alvocidib -0.034 | Tubastatin A -0.002 | [1] -0.013 | defactinib 0.016 | [2] -0.021 | encorafenib -0.013 | [3] 0.001 | alisertib 0.079 | [4] -0.016 | gefitinib -0.084 | lapatinib -0.016 | pictilisib -0.029 | crizotinib 0 | [5] 0.024 | duvelisib -0.02 | gandotinib 0.013 | tozasertib 0.025 | doramapimod 0.04 | bafetinib -0.016 | [6] 0.011

The results go on.

KMT2D isoform 3 (UniProt O14686)
inactive: alvocidib -0.052 | Tubastatin A -0.009 | [1] -0.004 | defactinib 0.023 | [2] 0.012 | encorafenib 0.016 | [3] 0.027 | alisertib -0.019 | [4] -0.011 | gefitinib -0.006 | lapatinib -0.014 | pictilisib -0.012 | crizotinib 0.002 | [5] 0.015 | duvelisib 0.034 | gandotinib -0.036 | tozasertib 0.03 | doramapimod 0.009 | bafetinib -0.002 | [6] 0.013

KPNA1 (UniProt P52294)
inactive: alvocidib -0.018 | Tubastatin A -0.033 | [1] 0.019 | defactinib -0.011 | [2] -0.026 | encorafenib 0.011 | [3] 0.092 | alisertib -0.025 | [4] -0.006 | gefitinib 0.011 | lapatinib -0.002 | pictilisib -0.056 | crizotinib -0.039 | [5] -0.014 | duvelisib 0 | gandotinib -0.068 | tozasertib 0.008 | doramapimod 0.033 | bafetinib -0.023 | [6] 0.028

KDM5C (UniProt P41229)
inactive: alvocidib -0.02 | Tubastatin A -0.115 | [1] 0.059 | defactinib -0.009 | [2] 0.04 | encorafenib -0.018 | [3] 0.176 | alisertib -0.01 | [4] 0.09 | gefitinib -0.013 | lapatinib -0.085 | pictilisib -0.071 | crizotinib -0.043 | [5] 0.034 | duvelisib -0.001 | gandotinib -0.135 | tozasertib 0.016 | doramapimod 0.04 | bafetinib -0.061 | [6] 0.001

LARP7 isoform 3 (UniProt Q4G0J3)
inactive: alvocidib -0.004 | Tubastatin A 0.034 | [1] 0.004 | defactinib -0.023 | [2] -0.025 | encorafenib 0.001 | [3] 0.001 | alisertib -0.009 | [4] -0.01 | gefitinib -0.013 | lapatinib -0.008 | pictilisib -0.005 | crizotinib -0.009 | [5] 0.009 | duvelisib 0.012 | gandotinib 0.044 | tozasertib -0.009 | doramapimod 0.032 | bafetinib -0.01 | [6] 0.009
